System: human iPSC-derived cardiomyocytes (iCells)
Protocol: Cell Culture. hiPSC-derived cardiomyocytes (iCells) from Cellular Dynamics International (CDT) were thawed in Plating Media (CDI and plated as single cells onto 0.1% Gelatin (Sigma)-coated, 6-well tissue-culture plates (Corning) at a density of 2.2−2.7×10^6 cells per well. Cells were cultured for 3-5 d at 37° C., 7% CO2 prior to re-plating onto xCELLigence® 96-well cardio e-plates (ACEA/Roche Applied Sciences) or microelectrode arrays (MEAs, Multichannel Systems). The media was changed every 2 d after plating using Maintenance Media (CDI), pre-warmed to 37° C. to minimize the temperature shock on cells.
xCELLigence® cardio e-plates and MEA Re-plating. iCells cultured in 6-well plates were harvested by twice washing in dPBS (GIBCO) then lifted with 0.5% Trypsin-EDTA (GIBCO), incubated at 37° C., 7% CO2. […] The cells were monitored every 1 h by a 20 s sweep duration by the xCELLigence® RTCA cardio system at its maximum sampling rate (77 Hz) prior to initiating experimentation.
xCELLigence® and MEA Experimentation. […] The xCELLigence® monitored changes to the beating for periodic 20 s sweep durations at 77 Hz.
Data Analysis. Data were first analyzed by the built-in analysis modules of xCELLigence® and MEAs systems, initial results were then exported into in-house developed Microsoft Excel templates for further semi-auto analysis. […]

Question: `Cc1cccc(CCN2CCC(C(=O)c3ccc(NS(C)(=O)=O)cc3)CC2)n1` [E-4031] was tested. Which “alterations in beat patterns / arrhythmic beats” value did it give?
Answer: erratic impedance changes were observed

From patent publication US20120107861A1, “METHOD OF DETERMINING RISK OF ARRHYTHMIA” (priority 2010, published 2012)
